No constants are given. Whether binding was seen depends on the method and setting. In cells and extracts the contact can be indirect. Some entries that bind do so weakly or less than the wild type.
T1: TRPC6 (human (endogenous in MCF7 and MDA-MB-231)) (UniProt Q9Y210)
T1 sequence: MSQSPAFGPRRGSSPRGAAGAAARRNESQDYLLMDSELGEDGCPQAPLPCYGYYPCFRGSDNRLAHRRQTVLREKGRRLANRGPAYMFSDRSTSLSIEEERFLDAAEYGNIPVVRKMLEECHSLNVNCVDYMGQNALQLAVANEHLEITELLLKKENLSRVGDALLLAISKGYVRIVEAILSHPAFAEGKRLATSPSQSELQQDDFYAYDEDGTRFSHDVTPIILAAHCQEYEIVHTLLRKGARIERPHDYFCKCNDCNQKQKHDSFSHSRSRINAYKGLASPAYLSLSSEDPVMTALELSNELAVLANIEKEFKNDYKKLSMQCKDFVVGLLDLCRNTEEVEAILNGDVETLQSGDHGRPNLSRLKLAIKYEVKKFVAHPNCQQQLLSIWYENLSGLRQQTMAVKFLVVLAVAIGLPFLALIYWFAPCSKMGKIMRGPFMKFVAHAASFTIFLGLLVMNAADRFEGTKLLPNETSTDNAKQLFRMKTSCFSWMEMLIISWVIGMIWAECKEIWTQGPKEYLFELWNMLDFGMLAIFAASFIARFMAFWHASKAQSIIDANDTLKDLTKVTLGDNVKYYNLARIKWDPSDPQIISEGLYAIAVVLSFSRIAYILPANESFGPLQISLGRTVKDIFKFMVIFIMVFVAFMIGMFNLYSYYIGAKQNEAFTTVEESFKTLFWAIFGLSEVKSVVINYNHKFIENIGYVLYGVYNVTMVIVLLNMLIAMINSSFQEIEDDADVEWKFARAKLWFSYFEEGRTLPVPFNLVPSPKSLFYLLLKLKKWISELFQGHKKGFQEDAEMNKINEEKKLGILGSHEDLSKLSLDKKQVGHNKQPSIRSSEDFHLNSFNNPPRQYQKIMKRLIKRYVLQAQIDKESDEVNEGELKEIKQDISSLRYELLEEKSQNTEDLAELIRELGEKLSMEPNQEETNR

The chains behind the UniProt entries cited, without tags or fusion partners.
UniProt Q96D31: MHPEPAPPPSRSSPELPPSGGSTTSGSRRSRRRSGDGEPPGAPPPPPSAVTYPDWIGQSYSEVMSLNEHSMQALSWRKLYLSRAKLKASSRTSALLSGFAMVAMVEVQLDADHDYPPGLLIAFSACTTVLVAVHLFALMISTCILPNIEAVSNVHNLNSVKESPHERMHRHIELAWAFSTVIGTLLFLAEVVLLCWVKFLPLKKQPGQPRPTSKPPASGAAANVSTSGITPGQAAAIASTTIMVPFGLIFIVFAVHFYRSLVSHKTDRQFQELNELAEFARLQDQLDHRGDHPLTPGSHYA


Legend:
[1] = target: T1, TRPC6 (human (endogenous in MCF7 and MDA-MB-231)); assay: co-IP; whole cell lysates (NP-40 buffer) of MCF7 and MDA-MB-231 cells, resting or treated with 1 uM TG for 3 min; immunoprecipitated with anti-TRPC6 antibody and protein A-agarose overnight at 4 C; blotted with anti-Orai1 or anti-Orai3 antibody
[2] = target: Orai1 (human (endogenous in MCF7 and MDA-MB-231)) (UniProt Q96D31); assay: co-IP; cell lysates immunoprecipitated with anti-Orai1 or anti-Orai3 antibody, blotted with anti-TRPC6 antibody (Figure S1)

Molecule | binding [1] | binding [2]
Orai1 (from UniProt Q96D31 1-301) | binds | 
TRPC6 (protein, UniProt Q9Y210 1-931) MSQSPAFGPRRGSSPRGAAGAAARRNESQDYLLMDSELGEDGCPQAPLPCYGYYPCFRGSDNRLAHRRQTVLREKGRRLANRGPAYMFSDRSTSLSIEEERFLDAAEYGNIPVVRKMLEECHSLNVNCVDYMGQNALQLAVANEHLEITELLLKKENLSRVGDALLLAISKGYVRIVEAILSHPAFAEGKRLATSPSQSELQQDDFYAYDEDGTRFSHDVTPIILAAHCQEYEIVHTLLRKGARIERPHDYFCKCNDCNQKQKHDSFSHSRSRINAYKGLASPAYLSLSSEDPVMTALELSNELAVLANIEKEFKNDYKKLSMQCKDFVVGLLDLCRNTEEVEAILNGDVETLQSGDHGRPNLSRLKLAIKYEVKKFVAHPNCQQQLLSIWYENLSGLRQQTMAVKFLVVLAVAIGLPFLALIYWFAPCSKMGKIMRGPFMKFVAHAASFTIFLGLLVMNAADRFEGTKLLPNETSTDNAKQLFRMKTSCFSWMEMLIISWVIGMIWAECKEIWTQGPKEYLFELWNMLDFGMLAIFAASFIARFMAFWHASKAQSIIDANDTLKDLTKVTLGDNVKYYNLARIKWDPSDPQIISEGLYAIAVVLSFSRIAYILPANESFGPLQISLGRTVKDIFKFMVIFIMVFVAFMIGMFNLYSYYIGAKQNEAFTTVEESFKTLFWAIFGLSEVKSVVINYNHKFIENIGYVLYGVYNVTMVIVLLNMLIAMINSSFQEIEDDADVEWKFARAKLWFSYFEEGRTLPVPFNLVPSPKSLFYLLLKLKKWISELFQGHKKGFQEDAEMNKINEEKKLGILGSHEDLSKLSLDKKQVGHNKQPSIRSSEDFHLNSFNNPPRQYQKIMKRLIKRYVLQAQIDKESDEVNEGELKEIKQDISSLRYELLEEKSQNTEDLAELIRELGEKLSMEPNQEETNR |  | binds
